# In patent publication US8575208B2, “Inhibitors of serine proteases” (priority 2007, dated 2013):
# For part of these data: Part of at least one peptide drawing is inferred or uncertain, most often the ends. At least one read-out could not be matched to a standard name with certainty. Peptide text beside a SMILES is read from it.
# Columns and labels:
# HCV NS3•4A = target: T1, HCV NS3•4A (Hepatitis C virus genotype 1a, UniProt P27958); assay: Determination of Km and Vmax, peptide substrates with full-length HCV NS3•4A; format: biochemical; details: enzyme NS3•4A
# T1 construct: hexa-histidine (N); made in house; host or cells: Sf9 insect cells (baculovirus)
# HCV NS3 protease domain = target: T2, HCV NS3 protease domain (Hepatitis C virus genotype 1b, UniProt Q9WMX2); assay: Determination of Km and Vmax, peptide substrate with HCV NS3 protease domain; format: biochemical; details: enzyme NS3 Protease Domain
# T2 construct: The first 181 amino acids of NS3 (residues 1027-1207 of the viral polyprotein); hexa-histidine (C); made in house; host or cells: E. coli BL21/DE3 pLysS
SMILES,Km (HCV NS3•4A),kcat/Km (HCV NS3•4A),kcat/Km (HCV NS3 protease domain)
"CC[C@H](NC(=O)[C@@H](NC(=O)[C@@H](NC(=O)[C@H](CC(=O)O)NC(=O)[C@H](CCC(=O)O)NC(=O)CCCCCNC(=S)Nc1ccc2c(c1)C(=O)OC21c2ccc(O)cc2Oc2cc(O)ccc21)C(C)C)C(C)C)C(=O)N[C@@H](CS)C(=O)N[C@@H](CO)C(=O)N[C@@H](CCSC)C(=O)N[C@@H](CO)C(=O)N[C@@H](Cc1ccc(O)cc1)C(=O)N[C@H](C(=O)N[C@@H](CCCCN)C(=O)N[C@@H](CCCCN)C(N)=O)[C@@H](C)O [FITC-NS5AB-1, FITC-Ahx-EDVV-(alpha)Abu-CSMSYTKK-NH2] (HELM PEPTIDE1{[O=C1OC2(c3ccc(O)cc3Oc3cc(O)ccc32)c2ccc(NC(=S)[*:2])cc21].[O=C(CCCCCN[*:1])[*:2]].E.D.V.V.[Abu].C.S.M.S.Y.T.K.K.[am]}$$$$V2.0)",15 µM,1200 M⁻¹ s⁻¹,
"CC[C@H](NC(=O)[C@@H](NC(=O)[C@@H](NC(=O)[C@H](CC(=O)O)NC(=O)[C@@H](N)CCC(=O)O)C(C)C)C(C)C)C(=O)N[C@@H](CS)C(=O)N[C@@H](CO)C(=O)N[C@@H](CCSC)C(=O)N[C@@H](CO)C(=O)N[C@@H](Cc1ccc(O)cc1)C(=O)O [NS5AB, NH2-EDVV-(alpha)Abu-CSMSY-COOH] (HELM PEPTIDE1{E.D.V.V.[Abu].C.S.M.S.Y}$$$$V2.0)",,7900 M⁻¹ s⁻¹,30000 M⁻¹ s⁻¹
"CC[C@H](NC(=O)[C@@H](NC(=O)[C@@H](NC(=O)[C@H](CC(=O)O)NC(=O)[C@@H](N)CCC(=O)O)C(C)C)C(C)C)C(=O)N[C@@H](CS)C(=O)N[C@@H](CO)C(=O)N[C@@H](CCSC)C(=O)N[C@@H](CO)C(=O)N[C@@H](Cc1ccc(O)cc1)C(=O)N[C@H](C(=O)N[C@@H](CC(=O)NCCNc1cccc2c(S(=O)(=O)O)cccc12)C(=O)N[C@@H](CCCCN)C(=O)N[C@@H](CCCCN)C(=O)N[C@@H](CCCCN)C(=O)O)[C@@H](C)O [NS5AB-EDANS, NH2-EDVV-(alpha)Abu-CSMSYT-Asp(EDANS)-KKK-COOH] (HELM PEPTIDE1{E.D.V.V.[Abu].C.S.M.S.Y.T.D.K.K.K}|CHEM1{[O=S(=O)(O)c1cccc2c(NCCN[*:1])cccc12]}$PEPTIDE1,CHEM1,12:R3-1:R1$$$V2.0)",56 µM,1400 M⁻¹ s⁻¹,
